Some results were stated once for a whole list of compounds, not compound by compound.
Target: ICRAC current (calcium release activated calcium channel) in Jurkat E6-1 cells (Homo sapiens, UniProt Q96D31)
Assay type: cell-based
Settings: Jurkat E6-1 T lymphocyte cell line; thapsigargin 5 μM; inhibition of maximal fluorescence signal

Protein sequences, listed by entry. Tags and fused reporters are not part of them.
UniProt Q96D31, whole entry: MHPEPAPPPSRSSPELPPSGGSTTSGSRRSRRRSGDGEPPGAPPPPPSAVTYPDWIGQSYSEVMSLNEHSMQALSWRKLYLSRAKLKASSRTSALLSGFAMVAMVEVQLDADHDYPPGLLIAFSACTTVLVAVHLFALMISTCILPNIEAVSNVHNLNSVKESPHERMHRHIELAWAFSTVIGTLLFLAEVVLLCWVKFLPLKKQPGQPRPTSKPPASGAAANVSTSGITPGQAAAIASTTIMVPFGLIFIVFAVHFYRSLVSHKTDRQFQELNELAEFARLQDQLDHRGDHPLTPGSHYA

Row | SMILES | pIC50
1 | O=C(Nc1ccn(Cc2ccc(I)cc2C(F)(F)F)n1)c1ccccc1F [Example 94, 2-Fluoro-N-(1-{[4-iodo-2-(trifluoromethyl)phenyl]methyl}-1H-pyrazol-3-yl)benzamide] | ≥ 6.0
2 | O=C(Nc1ccn(Cc2ccc(Oc3ccccc3)cc2C(F)(F)F)n1)c1c(Cl)cccc1Cl [Example 119, 2,6-Dichloro-N-(1-{[4-(phenyloxy)-2-(trifluoromethyl)phenyl]methyl}-1H-pyrazol-3-yl)benzamide] | ≥ 4.3
3 | O=C(Nc1ccn(Cc2ccc(Cl)cc2Cl)n1)c1c(F)cncc1F [Example 18, N-{1-[(2,4-dichlorophenyl)methyl]-1H-pyrazol-3-yl}-3,5-difluoro-4-Pyridinecarboxamide] | ≥ 6.0
4 | O=C(Nc1ccn(Cc2cc(Cl)ccc2OCc2ccccc2)n1)c1c(F)cccc1F [Example 19, N-[1-({5-chloro-2-[(phenylmethyl)oxy]phenyl}methyl)-1H-pyrazol-3-yl]-2,6-difluorobenzamide] | ≥ 6.0
5 | O=C(Nc1ccn(Cc2ccc(Cl)cc2Cl)n1)c1ccccc1F [Example 14, N-{1-[(2,4-dichlorophenyl)methyl]-1H-pyrazol-3-yl}-2-fluorobenzamide] | ≥ 4.3
6 | O=C(Nc1ccn(Cc2ccc(C3CC3)cc2C(F)(F)F)n1)c1ccccc1F [Example 98, N-(1-{[4-cyclopropyl-2-(trifluoromethyl)phenyl]methyl}-1H-pyrazol-3-yl)-2-fluorobenzamide] | ≥ 6.0
7 | CC(C)COc1ccc(Cl)cc1Cn1ccc(NC(=O)c2c(Cl)cccc2Cl)n1 [Example 160, 2,6-Dichloro-N-[1-({5-chloro-2-[(2-methylpropyl)oxy]phenyl}methyl)-1H-pyrazol-3-yl]benzamide] | ≥ 4.3
8 | O=C(Nc1ccn(Cc2ccccc2Oc2ccccc2)n1)c1c(F)cccc1F [Example 26, 2,6-Difluoro-N-(1-{[2-(phenyloxy)phenyl]methyl}-1H-pyrazol-3-yl)benzamide] | ≥ 6.0
9 | O=C(Nc1ccn(Cc2cc(Br)ccc2OCc2ccccc2)n1)c1c(F)cccc1F [Example 27, N-[1-({5-bromo-2-[(phenylmethyl)oxy]phenyl}methyl)-1H-pyrazol-3-yl] 2,6-difluorobenzamide] | ≥ 6.0
10 | COc1ccc(Br)c(Cn2ccc(NC(=O)c3c(F)cccc3F)n2)c1 [Example 22, N-(1-{[2-bromo-5-(methyloxy)phenyl]methyl}-1H-pyrazol-3-yl)-2,6-difluorobenzamide] | ≥ 6.0
11 | O=C(Nc1ccn(Cc2cc(I)ccc2C(F)(F)F)n1)c1c(F)cccc1F [Example 102, 2,6-Difluoro-N-(1-{[5-iodo-2-(trifluoromethyl)phenyl]methyl}-1H-pyrazol-3-yl)benzamide] | ≥ 6.0
12 | Cc1ccc(Cn2ccc(NC(=O)c3c(F)cccc3F)n2)c(C(F)(F)F)c1 [Example 75, 2,6-Difluoro-N-(1-{[4-methyl-2-(trifluoromethyl)phenyl]methyl}-1H-pyrazol-3-yl)benzamide] | ≥ 6.0
13 | O=C(Nc1ccn(Cc2ccc(Cl)cc2Cl)n1)c1c(F)cccc1Cl [Example 16, 2-Chloro-N-{1-[(2,4-dichlorophenyl)methyl]-1H-pyrazol-3-yl}-6-fluorobenzamide] | ≥ 6.0
14 | O=C(Nc1ccn(Cc2ccc(Cl)cc2Cl)n1)c1ccncc1F [Example 13, N-{1-[(2,4-dichlorophenyl)methyl]-1H-pyrazol-3-yl}-3-fluoro-4-pyridinecarboxamide] | ≥ 4.3
15 | O=C(Nc1ccn(Cc2cc(OCC3CC3)ccc2Cl)n1)c1c(F)cccc1F [Example 7, N-[1-({2-Chloro-5-[(cyclopropylmethyl)oxy]phenyl}methyl)-1H-pyrazol-3-yl]-2,6-difluorobenzamide] | ≥ 6.0
16 | COc1ccc(Cl)cc1Cn1ccc(NC(=O)c2c(F)cccc2F)n1 [Example 24, N-(1-{[5-chloro-2-(methyloxy)phenyl]methy1}-1H-pyrazol-3-yl)-2,6-difluorobenzamide] | ≥ 6.0

Row | SMILES | pIC50
17 | Cc1cc(I)ccc1Cn1ccc(NC(=O)c2c(F)cccc2F)n1 [Example 77, 2,6-Difluoro-N-{1-[(4-iodo-2-methylphenyl)methyl]-1H-pyrazol-3-yl}benzamide] | ≥ 6.0
18 | O=C(Nc1ccn(Cc2ccc(C3CC3)cc2C(F)(F)F)n1)c1ccccc1Cl [Example 97, 2-Chloro-N-(1-{[4-cyclopropyl-2-(trifluoromethyl)phenyl]methyl}-1H-pyrazol-3-yl)benzamide] | ≥ 6.0
19 | O=C(Nc1ccn(Cc2ccccc2OC(F)(F)F)n1)c1c(F)cccc1F [Example 28, 2,6-Difluoro-N-[1-({2-[(trifluoromethyl)oxy]phenyl}methyl)-1H-pyrazol-3-yl]benzamide] | ≥ 6.0
20 | O=C(Nc1ccn(Cc2c(Cl)cccc2Cl)n1)c1c(F)cccc1F [Example 21, N-{1-[(2,6-dichlorophenyl)methyl]-1H-pyrazol-3-yl}-2,6-difluorobenzamide] | ≥ 6.0
21 | O=C(Nc1ccn(Cc2ccc(C3CC3)cc2C(F)(F)F)n1)c1c(F)cccc1F [Example 76, N-(1-{[4-cyclopropyl-2-(trifluoromethyl)phenyl]methyl}-1H-pyrazol-3-yl)-2,6-difluorobenzamide] | ≥ 6.0
22 | O=C(Nc1ccn(Cc2ccc(Cl)cc2Cl)n1)c1c(F)cccc1F [Example 10, N-{1-[(2,4-Dichlorophenyl)methyl]-1H-pyrazol-3-yl}-2,6-difluorobenzamide] | ≥ 6.0
23 | CC(C)COc1ccc(Cl)c(Cn2ccc(NC(=O)c3c(F)cccc3F)n2)c1 [Example 63, N-[1-({2-chloro-5-[(2-methylpropyl)oxy]phenyl}methyl)-1H-pyrazol-3-yl]-2,6-difluorobenzamide] | ≥ 6.0
24 | CC(C)COc1ccc(Cl)cc1Cn1ccc(NC(=O)c2c(F)cccc2F)n1 [Example 23, N-[1-({5-chloro-2-[(2-methylpropyl)oxy]phenyl}methyl)-1H-pyrazol-3-yl]-2,6-difluorobenzamide] | ≥ 6.0
25 | O=C(Nc1ccn(Cc2ccc(I)cc2C(F)(F)F)n1)c1c(F)cccc1F [Example 73, 2,6-Difluoro-N-(1-{[4-iodo-2-(trifluoromethyl)phenyl]methyl}-1H-pyrazol-3-yl)benzamide] | ≥ 6.0
26 | O=C(Nc1ccn(Cc2ccccc2OCc2ccccc2)n1)c1c(F)cccc1F [Example 59, 2,6-Difluoro-N-[1-({2-[(phenylmethyl)oxy]phenyl}methyl)-1H-pyrazol-3-yl]benzamide] | ≥ 6.0
27 | O=C(Nc1ccn(Cc2ccc(OCc3ccccc3)cc2C(F)(F)F)n1)c1c(F)cccc1F [Example 35, 2,6-Difluoro-N-(1-{[4[(phenylmethyl)oxy]-2-(trifluoromethyl)phenyl]methyl}-1H-pyrazol-3-yl)benzamide] | ≥ 6.0
28 | O=C(Nc1ccn(Cc2ccc(Cl)cc2C(F)(F)F)n1)c1c(F)cccc1F [Example 80, N-(1-{[4-chloro-2-(trifluoromethyl)phenyl]methyl}-1H-pyrazol-3-yl)-2,6-difluorobenzamide] | ≥ 6.0
29 | O=C(Nc1ccn(Cc2c(Cl)cccc2Br)n1)c1c(F)cccc1F [Example 55, N-{1-[(2-Bromo-6-chlorophenyl)methyl]-1H-pyrazol-3-yl}-2,6-difluorobenzamide] | ≥ 6.0
30 | O=C(Nc1ccn(Cc2ccc(Cl)cc2Cl)n1)c1c(Cl)cccc1Cl [Example 17, 2,6-Dichloro-N-{1-[(2,4-dichlorophenyl)methyl]-1H-pyrazol-3-yl}-benzamide] | ≥ 6.0
31 | O=C(Nc1ccn(Cc2ccc(OCC3CC3)cc2C(F)(F)F)n1)c1c(F)cccc1F [Example 68, N-(1-{[4-[(cyclopropylmethyl)oxy]-2-(trifluoromethyl)phenyl]methyl}-1H-pyrazol-3-yl)-2,6-difluorobenzamide] | ≥ 6.0
